Data taken from the supplement of paper PMC6078165.

Tested on: BT20
Assay: relative JC-1 red fluorescence (viability) vs pre-drug, coculture with fibroblast (fraction); higher = more viable cancer cells
Experimental: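 JC-1 labelled TNBC cells cocultured 1:1 (1,500 cells each) with CellTrace Violet stained primary or stromal fibroblasts in 384-well plates in FluoroBrite medium, treated with one of 42 anticancer drugs at 0.1, 1, 10 or 100 uM. JC-1 red fluorescence (mitochondrial integrity in cancer cells only) was read by plate reader every 8 h for 72 h. Values are normalised to each well's pre-drug value. The stock of one drug was tenfold lower, so its dose labels may be too high.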

CC[C@]1(O)C[C@@H]2CN(CCc3c([nH]c4ccccc34)[C@@](C(=O)OC)(c3cc4c(cc3OC)N(C)[C@H]3[C@@](O)(C(=O)OC)[C@H](OC(C)=O)[C@]5(CC)C=CCN6CC[C@]43[C@@H]65)C2)C1 [Vinblastine]
relative JC-1 red fluorescence
Settings	8 h	16 h	24 h	32 h	40 h	48 h	56 h	64 h	72 h
0.1 µM, coculture fibroblast: C12385	0.882	0.8212	0.799	0.739	0.67	0.625	0.597	0.593	0.591
0.1 µM, coculture fibroblast: H6013	0.9206	0.896	0.867	0.831	0.797	0.786	0.781	0.771	0.77
0.1 µM, coculture fibroblast: H6019	0.8641	0.83759	0.871	0.841	0.813	0.813	0.796	0.801	0.795
0.1 µM, coculture fibroblast: H6076	0.957	0.912	0.8575	0.849	0.833	0.829	0.846	0.869	0.875
0.1 µM, coculture fibroblast: H6231	0.71	0.935	0.837	0.754	0.679	0.616	0.558	0.531	0.511
0.1 µM, coculture fibroblast: HADF	0.946	0.8728	0.812	0.7648	0.723	0.686	0.668	0.651	0.633
0.1 µM, coculture fibroblast: HCFa	0.9021	0.909	0.919	0.875	0.856	0.829	0.815	0.79	0.754
0.1 µM, coculture fibroblast: HCPF	0.851	0.915	0.8354	0.768	0.733	0.685	0.643	0.644	0.609
0.1 µM, coculture fibroblast: HHSteC	0.8892	0.883	0.89	0.81	0.777	0.744	0.726	0.712	0.688
0.1 µM, coculture fibroblast: HMF	0.924	0.856	0.771	0.732	0.701	0.663	0.649	0.626	0.621
0.1 µM, coculture fibroblast: HPFa	0.9512	0.842	0.8419	0.774	0.75	0.719	0.705	0.69	0.658
0.1 µM, coculture fibroblast: HUF	0.8937	0.778	0.7357	0.636	0.586	0.524	0.489	0.469	0.455
0.1 µM, coculture fibroblast: Hs5	0.858	0.924	0.8558	0.808	0.762	0.722	0.691	0.658	0.643
0.1 µM, coculture fibroblast: Hs27A	0.922	0.86	0.902	0.872	0.837	0.825	0.819	0.815	0.793
0.1 µM, coculture fibroblast: Hs343T	0.85	0.879	0.778	0.7145	0.651	0.595	0.557	0.541	0.518
0.1 µM, coculture fibroblast: WS1	0.8437	0.776	0.737	0.665	0.603	0.576	0.548	0.536	0.531
1 µM, coculture fibroblast: C12385	0.875	0.8165	0.7832	0.724	0.67	0.635	0.599	0.581	0.57
1 µM, coculture fibroblast: H6013	0.831	0.833	0.848	0.853	0.852	0.807	0.835	0.76	0.7792
1 µM, coculture fibroblast: H6019	0.831	0.8	0.798	0.7576	0.72	0.7177	0.703	0.698	0.695
1 µM, coculture fibroblast: H6076	0.94	0.915	0.871	0.848	0.8291	0.811	0.799	0.806	0.802
1 µM, coculture fibroblast: H6231	0.823	0.948	0.835	0.767	0.696	0.643	0.585	0.562	0.53
1 µM, coculture fibroblast: HADF	0.953	0.884	0.887	0.814	0.778	0.737	0.725	0.723	0.695
1 µM, coculture fibroblast: HCFa	0.882	0.857	0.8304	0.7473	0.69	0.6402	0.6174	0.591	0.558
1 µM, coculture fibroblast: HCPF	0.918	0.9261	0.858	0.805	0.761	0.721	0.678	0.663	0.625
1 µM, coculture fibroblast: HHSteC	0.908	0.958	0.844	0.8856	0.918	0.894	0.911	0.894	0.881
1 µM, coculture fibroblast: HMF	0.99	0.8844	0.78038	0.713	0.674	0.6244	0.565	0.54	0.517
1 µM, coculture fibroblast: HPFa	0.934	0.878	0.891	0.795	0.781	0.735	0.726	0.711	0.681
1 µM, coculture fibroblast: HUF	0.935	0.861	0.837	0.74	0.694	0.647	0.617	0.598	0.585
1 µM, coculture fibroblast: Hs5	0.937	0.935	0.867	0.807	0.761	0.719	0.69	0.665	0.636
1 µM, coculture fibroblast: Hs27A	0.753	0.814	0.764	0.913	0.892	0.953	0.95	0.927	0.877
1 µM, coculture fibroblast: Hs343T	0.815	0.911	0.801	0.725	0.662	0.61	0.544	0.509	0.473
1 µM, coculture fibroblast: WS1	0.8422	0.792	0.793	0.74	0.695	0.682	0.671	0.661	0.663

The reference is the same well before dosing, and untreated signal decays as well.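 Labels refer to human fibroblasts, largely primary: uterine (C12385, HUF), lung (H6013), bone (Hs27A), adrenal (HADF), skin (WS1), plus mammary HMF and breast cancer-associated Hs343T. Cancer lines are basal-like or mesenchymal-like triple-negative breast cancer. The paper counts as hits responses shifting over 3x the replicate standard deviation. The tissue of the other fibroblasts is not given here.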
